The values below come from paper PMC4976216.

These are yes or no findings as the source states them, for the method shown. Some binding calls cover weakened binding; strength is not graded here. Tags and fused reporters may be left off the sequences shown.

Experiment [1] addresses T1, Full-length 6His-FIP5 (UniProt Q9BXF6).
T1 sequence: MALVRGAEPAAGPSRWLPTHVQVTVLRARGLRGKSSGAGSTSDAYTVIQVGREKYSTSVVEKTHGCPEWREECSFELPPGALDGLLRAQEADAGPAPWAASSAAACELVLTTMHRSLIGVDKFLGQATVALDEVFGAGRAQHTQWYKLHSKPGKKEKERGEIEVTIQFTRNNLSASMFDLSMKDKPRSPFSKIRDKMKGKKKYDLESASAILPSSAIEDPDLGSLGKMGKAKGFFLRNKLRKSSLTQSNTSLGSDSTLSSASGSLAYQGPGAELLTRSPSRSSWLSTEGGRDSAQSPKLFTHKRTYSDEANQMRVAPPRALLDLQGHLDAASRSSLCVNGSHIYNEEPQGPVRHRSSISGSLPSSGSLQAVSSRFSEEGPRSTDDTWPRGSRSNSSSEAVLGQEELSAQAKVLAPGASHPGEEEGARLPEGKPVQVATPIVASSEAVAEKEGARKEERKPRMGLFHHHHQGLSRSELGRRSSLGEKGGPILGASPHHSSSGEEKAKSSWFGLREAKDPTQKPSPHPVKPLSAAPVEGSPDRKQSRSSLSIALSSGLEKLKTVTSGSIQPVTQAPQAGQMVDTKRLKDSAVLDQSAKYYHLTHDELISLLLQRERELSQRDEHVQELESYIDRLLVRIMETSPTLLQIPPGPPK
Nature of the experiment: co-IP; purified recombinant 6His-FIP5 and 6His-CGN, precipitated with anti-FIP5 antibody; immunoblots with anti-CGN and anti-FIP5; both purified. (In general: Immunoblotting shows a protein as a band on a membrane.)

For experiment [2], the target named is T2, GST-CGNaa355-579 (UniProt Q9P2M7).
T2 sequence: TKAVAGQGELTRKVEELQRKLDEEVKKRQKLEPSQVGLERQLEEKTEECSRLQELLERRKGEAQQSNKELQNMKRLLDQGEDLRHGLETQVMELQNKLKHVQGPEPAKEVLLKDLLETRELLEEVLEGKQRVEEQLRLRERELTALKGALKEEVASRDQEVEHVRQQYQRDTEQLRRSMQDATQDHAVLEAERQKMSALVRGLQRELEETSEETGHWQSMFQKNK
Briefly: pull-down; glutathione beads coated with 10 μg GST fusion protein, soluble recombinant 6His-FIP5; 50 mM HEPES pH 7.4, 150 mM NaCl, 5 mM MgCl2, 0.1% Triton X-100, 0.1% BSA, 1 mM PMSF; 25 °C, 1 h; Coomassie stained SDS-PAGE; both purified.

B1: Full-length 6His-CGN (protein, UniProt Q9P2M7 1-1203)
chain: MEQAPNMAEPRGPVDHGVQIRFITEPVSGAEMGTLRRGGRRPAKDARASTYGVAVRVQGIAGQPFVVLNSGEKGGDSFGVQIKGANDQGASGALSSDLELPENPYSQVKGFPAPSQSSTSDEEPGAYWNGKLLRSHSQASLAGPGPVDPSNRSNSMLELAPKVASPGSTIDTAPLSSVDSLINKFDSQLGGQARGRTGRRTRMLPPEQRKRSKSLDSRLPRDTFEERERQSTNHWTSSTKYDNHVGTSKQPAQSQNLSPLSGFSRSRQTQDWVLQSFEEPRRSAQDPTMLQFKSTPDLLRDQQEAAPPGSVDHMKATIYGILREGSSESETSVRRKVSLVLEKMQPLVMVSSGSTKAVAGQGELTRKVEELQRKLDEEVKKRQKLEPSQVGLERQLEEKTEECSRLQELLERRKGEAQQSNKELQNMKRLLDQGEDLRHGLETQVMELQNKLKHVQGPEPAKEVLLKDLLETRELLEEVLEGKQRVEEQLRLRERELTALKGALKEEVASRDQEVEHVRQQYQRDTEQLRRSMQDATQDHAVLEAERQKMSALVRGLQRELEETSEETGHWQSMFQKNKEDLRATKQELLQLRMEKEEMEEELGEKIEVLQRELEQARASAGDTRQVEVLKKELLRTQEELKELQAERQSQEVAGRHRDRELEKQLAVLRVEADRGRELEEQNLQLQKTLQQLRQDCEEASKAKMVAEAEATVLGQRRAAVETTLRETQEENDEFRRRILGLEQQLKETRGLVDGGEAVEARLRDKLQRLEAEKQQLEEALNASQEEEGSLAAAKRALEARLEEAQRGLARLGQEQQTLNRALEEEGKQREVLRRGKAELEEQKRLLDRTVDRLNKELEKIGEDSKQALQQLQAQLEDYKEKARREVADAQRQAKDWASEAEKTSGGLSRLQDEIQRLRQALQASQAERDTARLDKELLAQRLQGLEQEAENKKRSQDDRARQLKGLEEKVSRLETELDEEKNTVELLTDRVNRGRDQVDQLRTELMQERSARQDLECDKISLERQNKDLKTRLASSEGFQKPSASLSQLESQNQLLQERLQAEEREKTVLQSTNRKLERKVKELSIQIEDERQHVNDQKDQLSLRVKALKRQVDEAEEEIERLDGLRKKAQREVEEQHEVNEQLQARIKSLEKDSWRKASRSAAESALKNEGLSSDEEFDSVYDPSSIASLLTESNLQTSSC
Consider B1, for which the binding result in experiment [1] is listed as “binds”.

B2: Full-length 6His-FIP5 (protein, UniProt Q9BXF6 1-653)
chain: T1 sequence
On to B2, for which, in experiment [2], the binding result is recorded as “binds”.
